Results from article PMC8134429.
Results are given in words; binding and its absence hold for the method and conditions named. In cells and extracts the contact can be indirect. These calls come from enrichment with a bait or labelling near it, and not all partners need be listed.

Protein sequences, listed by entry. Tags and fused reporters are not part of them. Residues count along the entry.
UniProt P02751, residues 32-2477: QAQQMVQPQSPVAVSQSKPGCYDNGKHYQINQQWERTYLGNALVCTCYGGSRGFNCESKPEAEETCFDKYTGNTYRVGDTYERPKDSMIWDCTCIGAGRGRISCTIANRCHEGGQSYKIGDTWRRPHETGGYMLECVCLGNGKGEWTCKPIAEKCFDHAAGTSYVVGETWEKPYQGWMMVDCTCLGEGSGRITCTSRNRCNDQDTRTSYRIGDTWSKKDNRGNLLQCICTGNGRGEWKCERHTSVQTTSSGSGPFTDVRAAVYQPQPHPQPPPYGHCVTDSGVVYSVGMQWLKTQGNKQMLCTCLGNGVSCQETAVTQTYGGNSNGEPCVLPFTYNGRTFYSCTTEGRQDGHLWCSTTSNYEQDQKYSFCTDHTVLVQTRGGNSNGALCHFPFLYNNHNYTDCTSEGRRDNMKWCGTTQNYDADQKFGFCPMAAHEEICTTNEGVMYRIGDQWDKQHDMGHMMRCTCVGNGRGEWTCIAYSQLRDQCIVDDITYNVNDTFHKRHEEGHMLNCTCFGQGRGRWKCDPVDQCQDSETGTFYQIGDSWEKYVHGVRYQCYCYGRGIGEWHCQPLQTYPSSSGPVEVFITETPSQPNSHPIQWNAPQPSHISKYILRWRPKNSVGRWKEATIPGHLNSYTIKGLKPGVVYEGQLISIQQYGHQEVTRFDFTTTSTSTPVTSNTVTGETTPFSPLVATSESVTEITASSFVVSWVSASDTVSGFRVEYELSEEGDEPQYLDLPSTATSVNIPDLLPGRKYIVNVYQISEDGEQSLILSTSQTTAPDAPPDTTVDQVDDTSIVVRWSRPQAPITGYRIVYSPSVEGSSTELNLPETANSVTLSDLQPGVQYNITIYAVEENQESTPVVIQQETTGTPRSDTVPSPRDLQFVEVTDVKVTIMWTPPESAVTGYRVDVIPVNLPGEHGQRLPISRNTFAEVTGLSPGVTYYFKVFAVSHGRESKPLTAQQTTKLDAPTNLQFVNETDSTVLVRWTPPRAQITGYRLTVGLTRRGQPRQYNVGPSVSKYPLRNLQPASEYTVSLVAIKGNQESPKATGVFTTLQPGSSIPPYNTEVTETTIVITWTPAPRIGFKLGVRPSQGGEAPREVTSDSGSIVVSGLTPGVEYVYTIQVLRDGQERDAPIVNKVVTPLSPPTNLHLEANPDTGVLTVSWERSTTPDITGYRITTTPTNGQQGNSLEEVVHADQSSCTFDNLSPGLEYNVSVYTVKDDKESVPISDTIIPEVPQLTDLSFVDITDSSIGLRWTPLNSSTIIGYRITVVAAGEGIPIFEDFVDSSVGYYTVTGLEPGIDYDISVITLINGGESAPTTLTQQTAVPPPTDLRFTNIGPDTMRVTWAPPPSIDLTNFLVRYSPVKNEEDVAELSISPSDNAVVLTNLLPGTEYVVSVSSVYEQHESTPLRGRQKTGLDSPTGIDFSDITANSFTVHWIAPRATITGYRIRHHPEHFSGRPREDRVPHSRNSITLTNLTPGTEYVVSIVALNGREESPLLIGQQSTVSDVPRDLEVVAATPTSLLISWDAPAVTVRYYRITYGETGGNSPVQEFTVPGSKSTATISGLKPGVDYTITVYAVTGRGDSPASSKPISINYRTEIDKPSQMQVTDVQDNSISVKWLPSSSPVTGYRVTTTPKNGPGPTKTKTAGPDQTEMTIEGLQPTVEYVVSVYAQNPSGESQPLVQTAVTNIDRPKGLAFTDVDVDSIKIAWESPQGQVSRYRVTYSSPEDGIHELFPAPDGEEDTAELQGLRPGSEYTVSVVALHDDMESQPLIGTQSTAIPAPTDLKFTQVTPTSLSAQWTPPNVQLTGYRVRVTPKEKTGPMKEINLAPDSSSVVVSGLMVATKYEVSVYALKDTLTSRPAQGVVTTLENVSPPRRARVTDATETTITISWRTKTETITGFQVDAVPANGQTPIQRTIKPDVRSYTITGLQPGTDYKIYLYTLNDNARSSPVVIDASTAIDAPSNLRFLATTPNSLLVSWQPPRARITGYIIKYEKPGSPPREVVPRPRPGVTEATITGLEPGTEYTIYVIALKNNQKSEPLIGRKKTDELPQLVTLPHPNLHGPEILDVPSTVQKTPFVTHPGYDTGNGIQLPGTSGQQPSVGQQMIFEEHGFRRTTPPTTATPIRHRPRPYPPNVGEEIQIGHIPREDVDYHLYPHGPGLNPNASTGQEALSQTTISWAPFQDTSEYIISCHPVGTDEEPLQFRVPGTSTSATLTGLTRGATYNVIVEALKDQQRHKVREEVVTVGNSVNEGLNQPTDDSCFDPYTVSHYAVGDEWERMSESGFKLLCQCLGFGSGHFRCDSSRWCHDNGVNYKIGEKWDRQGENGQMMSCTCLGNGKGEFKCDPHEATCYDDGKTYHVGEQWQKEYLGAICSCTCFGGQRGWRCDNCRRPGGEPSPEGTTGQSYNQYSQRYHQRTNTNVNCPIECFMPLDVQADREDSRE
UniProt P13645: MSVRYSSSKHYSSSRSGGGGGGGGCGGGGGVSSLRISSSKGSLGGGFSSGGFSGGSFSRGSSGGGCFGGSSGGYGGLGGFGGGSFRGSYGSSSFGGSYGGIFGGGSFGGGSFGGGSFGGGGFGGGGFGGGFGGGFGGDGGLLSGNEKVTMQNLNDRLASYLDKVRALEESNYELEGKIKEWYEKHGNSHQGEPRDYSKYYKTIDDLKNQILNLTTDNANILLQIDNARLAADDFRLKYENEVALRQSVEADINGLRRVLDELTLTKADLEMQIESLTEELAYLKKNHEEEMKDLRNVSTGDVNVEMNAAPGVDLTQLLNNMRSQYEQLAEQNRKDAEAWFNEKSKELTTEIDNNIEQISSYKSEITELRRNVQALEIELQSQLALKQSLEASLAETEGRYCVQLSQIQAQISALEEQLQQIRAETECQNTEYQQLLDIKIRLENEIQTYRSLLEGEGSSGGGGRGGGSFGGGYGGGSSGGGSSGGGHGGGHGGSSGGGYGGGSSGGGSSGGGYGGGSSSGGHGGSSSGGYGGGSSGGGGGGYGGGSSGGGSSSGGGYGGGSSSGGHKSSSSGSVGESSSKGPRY
UniProt P04264: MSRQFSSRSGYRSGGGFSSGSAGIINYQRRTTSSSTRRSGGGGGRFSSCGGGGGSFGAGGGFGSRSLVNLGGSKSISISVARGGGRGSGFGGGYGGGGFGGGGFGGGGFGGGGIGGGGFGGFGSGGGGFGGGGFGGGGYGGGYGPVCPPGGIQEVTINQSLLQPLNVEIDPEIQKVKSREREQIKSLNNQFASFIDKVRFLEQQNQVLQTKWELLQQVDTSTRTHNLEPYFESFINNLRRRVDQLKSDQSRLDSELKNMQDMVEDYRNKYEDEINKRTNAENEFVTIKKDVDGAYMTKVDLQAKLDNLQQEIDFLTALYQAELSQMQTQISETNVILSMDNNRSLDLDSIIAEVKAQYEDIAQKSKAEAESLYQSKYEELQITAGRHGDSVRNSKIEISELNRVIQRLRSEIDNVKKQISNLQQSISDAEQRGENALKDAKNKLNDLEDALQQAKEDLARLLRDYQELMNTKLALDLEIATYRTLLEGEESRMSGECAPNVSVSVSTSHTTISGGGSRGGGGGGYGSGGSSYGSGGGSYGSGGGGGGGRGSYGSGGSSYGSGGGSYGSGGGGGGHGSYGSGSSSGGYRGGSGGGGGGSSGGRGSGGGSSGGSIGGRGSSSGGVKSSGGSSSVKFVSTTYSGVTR
UniProt P04259: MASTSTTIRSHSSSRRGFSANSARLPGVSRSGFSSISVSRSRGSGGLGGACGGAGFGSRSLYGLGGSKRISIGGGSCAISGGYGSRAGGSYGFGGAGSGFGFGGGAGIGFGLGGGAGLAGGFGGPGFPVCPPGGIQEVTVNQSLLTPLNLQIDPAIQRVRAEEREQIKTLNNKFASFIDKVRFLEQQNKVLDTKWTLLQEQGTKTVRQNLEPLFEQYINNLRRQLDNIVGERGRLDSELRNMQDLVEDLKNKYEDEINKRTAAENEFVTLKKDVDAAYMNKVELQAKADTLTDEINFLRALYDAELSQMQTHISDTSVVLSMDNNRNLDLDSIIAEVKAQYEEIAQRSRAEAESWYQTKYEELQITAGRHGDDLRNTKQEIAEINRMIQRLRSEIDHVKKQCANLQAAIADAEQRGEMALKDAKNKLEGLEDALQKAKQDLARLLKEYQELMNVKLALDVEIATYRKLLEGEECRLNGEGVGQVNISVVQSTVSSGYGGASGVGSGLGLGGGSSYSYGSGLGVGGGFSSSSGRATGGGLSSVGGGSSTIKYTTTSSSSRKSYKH
UniProt P35580: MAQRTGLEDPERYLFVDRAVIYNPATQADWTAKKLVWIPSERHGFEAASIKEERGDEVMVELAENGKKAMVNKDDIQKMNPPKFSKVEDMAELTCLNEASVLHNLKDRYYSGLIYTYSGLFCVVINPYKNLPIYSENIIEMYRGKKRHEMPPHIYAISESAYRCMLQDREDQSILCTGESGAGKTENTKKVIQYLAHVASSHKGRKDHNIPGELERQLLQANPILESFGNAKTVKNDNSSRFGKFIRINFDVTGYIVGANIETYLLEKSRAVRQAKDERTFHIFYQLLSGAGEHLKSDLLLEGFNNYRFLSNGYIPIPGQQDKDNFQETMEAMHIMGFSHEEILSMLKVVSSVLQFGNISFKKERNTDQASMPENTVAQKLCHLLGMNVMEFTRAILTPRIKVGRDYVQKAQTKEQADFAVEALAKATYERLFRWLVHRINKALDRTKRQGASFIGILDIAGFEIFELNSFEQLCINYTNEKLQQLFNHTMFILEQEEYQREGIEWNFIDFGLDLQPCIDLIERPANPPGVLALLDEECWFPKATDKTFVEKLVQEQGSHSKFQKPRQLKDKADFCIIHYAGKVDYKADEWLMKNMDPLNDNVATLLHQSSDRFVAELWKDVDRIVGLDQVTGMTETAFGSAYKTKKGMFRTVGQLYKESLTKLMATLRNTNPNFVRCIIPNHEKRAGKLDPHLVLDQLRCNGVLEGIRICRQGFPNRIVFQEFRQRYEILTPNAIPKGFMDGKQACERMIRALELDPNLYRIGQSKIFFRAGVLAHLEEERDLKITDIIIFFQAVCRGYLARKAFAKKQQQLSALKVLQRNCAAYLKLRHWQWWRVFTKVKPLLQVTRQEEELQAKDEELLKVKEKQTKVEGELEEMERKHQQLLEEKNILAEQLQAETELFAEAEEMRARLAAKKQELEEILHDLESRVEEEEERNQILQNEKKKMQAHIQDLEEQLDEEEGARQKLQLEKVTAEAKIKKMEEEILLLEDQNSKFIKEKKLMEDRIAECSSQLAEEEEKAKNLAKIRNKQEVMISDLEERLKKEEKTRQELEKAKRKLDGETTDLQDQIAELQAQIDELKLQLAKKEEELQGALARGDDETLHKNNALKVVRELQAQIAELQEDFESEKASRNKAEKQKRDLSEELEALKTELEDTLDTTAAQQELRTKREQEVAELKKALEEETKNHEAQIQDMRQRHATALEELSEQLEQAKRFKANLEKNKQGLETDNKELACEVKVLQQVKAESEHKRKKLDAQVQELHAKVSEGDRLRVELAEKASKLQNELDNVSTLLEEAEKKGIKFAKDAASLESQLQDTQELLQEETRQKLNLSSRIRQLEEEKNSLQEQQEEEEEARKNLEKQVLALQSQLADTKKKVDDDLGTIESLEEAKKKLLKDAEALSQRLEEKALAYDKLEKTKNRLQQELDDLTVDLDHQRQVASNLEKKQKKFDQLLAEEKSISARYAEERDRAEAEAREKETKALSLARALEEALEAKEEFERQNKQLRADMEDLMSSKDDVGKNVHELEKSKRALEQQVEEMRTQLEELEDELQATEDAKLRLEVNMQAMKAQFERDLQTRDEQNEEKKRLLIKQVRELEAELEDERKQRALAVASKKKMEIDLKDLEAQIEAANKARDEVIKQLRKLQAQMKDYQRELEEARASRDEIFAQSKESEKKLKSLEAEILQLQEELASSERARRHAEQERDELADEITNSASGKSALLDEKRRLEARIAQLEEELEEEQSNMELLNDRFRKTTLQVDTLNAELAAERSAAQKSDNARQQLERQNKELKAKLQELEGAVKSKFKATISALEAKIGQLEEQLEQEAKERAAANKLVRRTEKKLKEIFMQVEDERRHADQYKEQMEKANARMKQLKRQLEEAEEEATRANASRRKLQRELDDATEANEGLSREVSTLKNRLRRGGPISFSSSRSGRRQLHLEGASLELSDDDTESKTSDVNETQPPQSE

B1: Keratin, type I cytoskeletal 9 (human) (protein, UniProt P35527 1-623)
chain: MSCRQFSSSYLSRSGGGGGGGLGSGGSIRSSYSRFSSSGGGGGGGRFSSSSGYGGGSSRVCGRGGGGSFGYSYGGGSGGGFSASSLGGGFGGGSRGFGGASGGGYSSSGGFGGGFGGGSGGGFGGGYGSGFGGFGGFGGGAGGGDGGILTANEKSTMQELNSRLASYLDKVQALEEANNDLENKIQDWYDKKGPAAIQKNYSPYYNTIDDLKDQIVDLTVGNNKTLLDIDNTRMTLDDFRIKFEMEQNLRQGVDADINGLRQVLDNLTMEKSDLEMQYETLQEELMALKKNHKEEMSQLTGQNSGDVNVEINVAPGKDLTKTLNDMRQEYEQLIAKNRKDIENQYETQITQIEHEVSSSGQEVQSSAKEVTQLRHGVQELEIELQSQLSKKAALEKSLEDTKNRYCGQLQMIQEQISNLEAQITDVRQEIECQNQEYSLLLSIKMRLEKEIETYHNLLEGGQEDFESSGAGKIGLGGRGGSGGSYGRGSRGGSGGSYGGGGSGGGYGGGSGSRGGSGGSYGGGSGSGGGSGGGYGGGSGGGHSGGSGGGHSGGSGGNYGGGSGSGGGSGGGYGGGSGSRGGSGGSHGGGSGFGGESGGSYGGGEEASGSGGGYGGGSGKSSHS
B2: Dermcidin (human) (protein, UniProt P81605 20-110)
chain: YDPEAASAPGSGNPCHEASAAQKENAGEDPGLARQAPKPRKQRSSLLEKGLDGAKKAVGGLGKLGKDAVEDLESVGKGAVHDVKDVLDSVL
B3: Myosin light polypeptide 6 (mouse) (protein, UniProt Q60605 1-151)
chain: MCDFTEDQTAEFKEAFQLFDRTGDGKILYSQCGDVMRALGQNPTNAEVLKVLGNPKSDEMNVKVLDFEHFLPMLQTVAKNKDQGTYEDYVEGLRVFDKEGNGTVMGAEIRHVLVTLGEKMTEEEVEMLVAGHEDSNGCINYEAFVRHILSG

Columns and labels:
[1] = biological target: Fibronectin (endogenous, human myotubes) (human (endogenous in human myotubes)) (UniProt P02751); test: affinity purification with mass spectrometry; fibronectin precipitated with 10 ug human fibronectin antibody (Sigma) on IgG beads from human myotube lysates (healthy control, LGMD2I, CMD) in immunoprecipitation buffer (Pierce); on-bead trypsin digestion; DDA and SWATH; collagen peptide normalised to fibronectin peptide
[2] = biological target: FKRP (bait of the FKRP pull down of Table 2); test: affinity purification with mass spectrometry; immunoprecipitation of FKRP and SWATH mass spectrometry; sample not stated (hits are mouse entries)

Row | Molecule | binding [1] | binding [2]
1 | Filamin-A (human) (from UniProt P21333 1-2647) | binds | –
2 | Keratin, type I cytoskeletal 10 (human) (from UniProt P13645 1-584) | binds | –
3 | Keratin, type II cytoskeletal 1 (human) (from UniProt P04264 1-644) | binds | –
4 | Keratin, type II cytoskeletal 6B (human) (from UniProt P04259 1-564) | binds | –
5 | Myosin-9 (human) (from UniProt P35579 1-1960) | binds | –
6 | Myosin-10 (human) (from UniProt P35580 1-1976) | binds | –
7 | B1 | binds | –
8 | B2 | binds | –
9 | B3 | – | binds
